Values from PubChem BioAssay AID1508588 (Peter MacCallum Cancer Centre, 2020).
The whole screen tested about 18,000 reagents; this is a random part of them. 790 of all reagents (4.4%) were called active. 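Calls rest on a combination of fold-change classes in drug and vehicle arms, not all shown here.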 A number with no mark means an inactive call.

- Screen: 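Which gene losses make BRAF-mutant melanoma cells more responsive to vemurafenib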 (primary screen)
- Cells: human WM266.4 melanoma cells (BRAF V600 mutant)
- Knock-down reagent: siRNA pool against human genes, 40 nM
- Duration: 96 h from transfection to read-out
- Conditions: vemurafenib 300 nM (about IC25), added 48 h after transfection, for 48 h; comparison arm got DMSO vehicle only
- Detection: 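Cell gain (DAPI nuclei at end minus before drug, mean of two replicates) and medium lactate by absorbance per cell, both as ratio to non-targeting siRNA, also grouped into fold-change classes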
- Scale: cell gain with vemurafenib: higher = more cell gain than with non-targeting siRNA; lactate per cell with vemurafenib: higher = more lactate made per cell
- Hit rule: 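Enhancement is called by pairing each knock-down's vehicle-arm and drug-arm fold-change classes for viability or glycolysis; which class combinations qualify is not given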
- Meaning of the calls: active = enhances vemurafenib effect; inactive = no enhancement seen

gene | cell gain with vemurafenib | lactate per cell with vemurafenib
EML2 (EMAP like 2) | 0.84 | 1.08
PPP1R12A (protein phosphatase 1 regulatory subunit 12A) | 0.29 | 0.38
RELL1 (RELT like 1) | 0.96 | 1.19
E2F3 (E2F transcription factor 3) | 0.74 | 0.92
PLEKHG3 (pleckstrin homology and RhoGEF domain containing G3) | 0.53 | 0.46
ABCA8 (ATP binding cassette subfamily A member 8) | 0.9 | 0.8
PROSER3 (proline and serine rich 3) | 0.31 | 0.69
TLCD3A (TLC domain containing 3A) | 0.34 | 0.84
SEMA5B (semaphorin 5B) | 0.74 | 1.05
HOXC11 (homeobox C11) | 0.51 | 0.72
ZNF696 (zinc finger protein 696) | 0.6 | 0.7
HLA-DPB1 (major histocompatibility complex, class II, DP beta 1) | 0.99 | 0.93
SLC1A2 | 1.03 | 0.94
ABHD17A (abhydrolase domain containing 17A, depalmitoylase) | 0.71 | 0.94
CPSF6 (cleavage and polyadenylation specific factor 6) | 0.77 | 1.49
IST1 (IST1 factor associated with ESCRT-III) | 0.06 | 1.63
NAXE (NAD(P)HX epimerase) | 0.45 | 0.88
USP18 (ubiquitin specific peptidase 18) | 0.32 | 0.8
FBXO9 (F-box protein 9) | 0.05 | 1.15
MRPS35 (mitochondrial ribosomal protein S35) | 0.37 | 1.16
RIN1 (Ras and Rab interactor 1) | 0.28 | 1.2
PPIP5K2 (diphosphoinositol pentakisphosphate kinase 2) | 0.71 | 0.29
EMD (emerin) | 0.6 | 0.52
CFAP119 (cilia and flagella associated protein 119) | 0.66 | 1.09
WDR18 (WD repeat domain 18) | 0.72 | 1.04
RFC1 (replication factor C subunit 1) | 0.82 | 0.68
HSD17B3 (hydroxysteroid 17-beta dehydrogenase 3) | 0.9 | 0.98
OR5A2 (olfactory receptor family 5 subfamily A member 2) | 0.57 | 0.62
HINT2 (histidine triad nucleotide binding protein 2) | 0.23 | 1.81
CYP17A1 (cytochrome P450 family 17 subfamily A member 1) | 1.06 | 0.73
CRB3 (crumbs cell polarity complex component 3) | 0.22 | 0.86
VAV2 (vav guanine nucleotide exchange factor 2) | 1.06 | 0.77
KITLG (KIT ligand) | 0.89 | 0.55
NT5E (5'-nucleotidase ecto) | 0.12 | 2.13
